At least one structure is not confirmed: it was looked up by name or label, or the drawing left a doubt. Some entries share one result that the patent states for a list of compounds.
Tests used:
[1] = test system: COVID-19; conditions: hospitalized COVID-19 patients; cited from earlier work
[2] = Stability by UV spectroscopy after storage under normal conditions and stress tests; assay type: physicochemical
[3] = Conditions 1: immediately after solution preparation
[4] = Conditions 2: 24 hours in the light at 25° C.
[5] = Conditions 3: 24 hours in the light at 60° C.
[6] = Conditions 4: 96 hours in the dark at 25° C.
[7] = Conditions 5: 96 hours in the light at 25° C.
[8] = Conditions 6: 96 hours in the dark at 3-5° C.
[9] = Conditions 7: 96 hours in the dark at 30° C.
[10] = Conditions 8: 96 hours in the dark at 40° C.
[11] = Conditions 9: 96 hours in the dark at 60° C.

## CCC(CC)COC(=O)[C@H](C)N[P@](=O)(OC[C@H]1O[C@@](C#N)(c2ccc3c(N)ncnn23)[C@H](O)[C@@H]1O)Oc1ccccc1 [RDV, remdesivir]
[1]
  median time to recovery: 8 days
[2]; [3]
  Optical density at 205 nm: 0.3285
  Optical density at 246 nm: 0.6176
[2]; [4]
  Optical density at 205 nm: 0.2901
  Optical density at 246 nm: 0.6078
  Δ, % change in optical density at 205 nm vs Conditions 1: −1.62%
  Δ, % change in optical density at 246 nm vs Conditions 1: −1.58%
[2]; [5]
  Optical density at 205 nm: 0.3252
  Optical density at 246 nm: 0.624
  Δ, % change in optical density at 205 nm vs Conditions 1: −0.14%
  Δ, % change in optical density at 246 nm vs Conditions 1: 1.04%
[2]; Conditions 4-9 (96 hours)
  percentage of change in optical density under Conditions 4-9 compared to Conditions 1 (Δ): > 2%
[2]; [6]
  Optical density at 205 nm: 0.3439
  Optical density at 246 nm: 0.6337
  Δ, % change in optical density at 205 nm vs Conditions 1: 0.65%
  Δ, % change in optical density at 246 nm vs Conditions 1: 2.62%
[2]; [7]
  Optical density at 205 nm: 0.3477
  Optical density at 246 nm: 0.6409
  Δ, % change in optical density at 205 nm vs Conditions 1: o.81%
  Δ, % change in optical density at 246 nm vs Conditions 1: 3.78%
[2]; [8]
  Optical density at 205 nm: 0.3384
  Optical density at 246 nm: 0.6312
  Δ, % change in optical density at 205 nm vs Conditions 1: 0.42%
  Δ, % change in optical density at 246 nm vs Conditions 1: 2.22%
[2]; [9]
  Optical density at 205 nm: 0.3505
  Optical density at 246 nm: 0.6408
  Δ, % change in optical density at 205 nm vs Conditions 1: 0.93%
  Δ, % change in optical density at 246 nm vs Conditions 1: 3.75%
[2]; [10]
  Optical density at 205 nm: 0.3453
  Optical density at 246 nm: 0.6371
  Δ, % change in optical density at 205 nm vs Conditions 1: 0.71%
  Δ, % change in optical density at 246 nm vs Conditions 1: 3.17%
[2]; [11]
  Optical density at 205 nm: 0.3387
  Optical density at 246 nm: 0.6189
  Δ, % change in optical density at 205 nm vs Conditions 1: 0.43%
  Δ, % change in optical density at 246 nm vs Conditions 1: 0.21%

— patent US20230310467A1 (priority 2022, published 2023)
